{"source": "paper PMC9265050", "about": "“Inhibition of RNA Binding in SND1 Increases the Levels of miR-1-3p and Sensitizes Cancer Cells to Navitoclax” (Cancers, 2022)", "key": {"SND1 full-length [1]": {"molecular_target": "T1, SND1 full-length (UniProt Q7KZF4)", "T1 sequence (looked up, limits assumed)": "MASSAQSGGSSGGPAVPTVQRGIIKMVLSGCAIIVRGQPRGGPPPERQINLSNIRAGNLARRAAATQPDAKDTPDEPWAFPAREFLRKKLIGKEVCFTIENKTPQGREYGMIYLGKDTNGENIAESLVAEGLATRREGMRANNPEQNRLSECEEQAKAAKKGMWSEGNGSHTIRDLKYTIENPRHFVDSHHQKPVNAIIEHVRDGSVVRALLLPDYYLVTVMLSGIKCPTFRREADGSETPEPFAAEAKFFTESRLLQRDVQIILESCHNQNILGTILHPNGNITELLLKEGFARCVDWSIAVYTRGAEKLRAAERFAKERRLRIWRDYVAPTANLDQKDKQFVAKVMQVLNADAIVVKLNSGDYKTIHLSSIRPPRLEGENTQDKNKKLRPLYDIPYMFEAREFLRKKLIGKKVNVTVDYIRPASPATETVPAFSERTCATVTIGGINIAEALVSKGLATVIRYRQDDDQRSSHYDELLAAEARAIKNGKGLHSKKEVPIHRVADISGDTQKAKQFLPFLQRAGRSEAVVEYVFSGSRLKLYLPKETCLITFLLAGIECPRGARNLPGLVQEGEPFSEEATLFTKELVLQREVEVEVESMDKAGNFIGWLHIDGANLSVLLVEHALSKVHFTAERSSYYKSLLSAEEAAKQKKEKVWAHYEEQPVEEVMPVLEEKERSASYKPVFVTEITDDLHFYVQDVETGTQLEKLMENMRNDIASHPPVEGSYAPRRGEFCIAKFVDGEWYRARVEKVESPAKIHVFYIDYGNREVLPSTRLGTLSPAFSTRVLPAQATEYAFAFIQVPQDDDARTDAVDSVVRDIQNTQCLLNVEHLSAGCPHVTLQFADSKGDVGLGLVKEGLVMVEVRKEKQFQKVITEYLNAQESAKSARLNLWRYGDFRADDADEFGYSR", "experiment": "fluorescence polarization", "settings": "EGTA, no Ca2+, high affinity, Kd only in figure; FP: 20 mM HEPES pH 7.5, 100 mM NaCl, 3 nM labelled RNA, 25 C; recombinant protein; protein details: GST tag removed by TEV; label: 5' Alexa Fluor 488"}, "SND1 SN3-SN4-TSN": {"molecular_target": "T2, SND1 SN3-SN4-TSN (UniProt Q7KZF4)", "T2 sequence (looked up)": "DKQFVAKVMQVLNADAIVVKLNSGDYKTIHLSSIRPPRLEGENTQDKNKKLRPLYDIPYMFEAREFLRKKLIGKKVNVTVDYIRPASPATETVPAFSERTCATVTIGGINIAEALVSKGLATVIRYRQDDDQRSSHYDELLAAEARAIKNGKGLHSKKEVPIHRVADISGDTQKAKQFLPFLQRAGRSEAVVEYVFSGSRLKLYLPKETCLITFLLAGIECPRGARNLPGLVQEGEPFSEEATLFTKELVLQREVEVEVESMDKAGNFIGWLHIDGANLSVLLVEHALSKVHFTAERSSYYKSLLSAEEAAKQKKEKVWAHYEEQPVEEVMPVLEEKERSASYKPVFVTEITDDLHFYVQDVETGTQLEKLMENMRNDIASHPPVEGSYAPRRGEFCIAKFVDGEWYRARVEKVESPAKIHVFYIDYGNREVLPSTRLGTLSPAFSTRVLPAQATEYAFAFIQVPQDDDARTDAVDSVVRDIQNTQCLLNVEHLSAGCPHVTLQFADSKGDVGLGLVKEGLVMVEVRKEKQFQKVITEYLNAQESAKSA", "experiment": "fluorescence polarization", "settings": "FP: 20 mM HEPES pH 7.5, 100 mM NaCl, 3 nM labelled RNA, 25 C; recombinant protein; residues 340-888; protein details: GST tag removed by TEV; label: 5' Alexa Fluor 488; scale: fold lower affinity than full-length SND1"}, "SND1 SN1-SN2": {"molecular_target": "T3, SND1 SN1-SN2 (UniProt Q7KZF4)", "T3 sequence (looked up)": "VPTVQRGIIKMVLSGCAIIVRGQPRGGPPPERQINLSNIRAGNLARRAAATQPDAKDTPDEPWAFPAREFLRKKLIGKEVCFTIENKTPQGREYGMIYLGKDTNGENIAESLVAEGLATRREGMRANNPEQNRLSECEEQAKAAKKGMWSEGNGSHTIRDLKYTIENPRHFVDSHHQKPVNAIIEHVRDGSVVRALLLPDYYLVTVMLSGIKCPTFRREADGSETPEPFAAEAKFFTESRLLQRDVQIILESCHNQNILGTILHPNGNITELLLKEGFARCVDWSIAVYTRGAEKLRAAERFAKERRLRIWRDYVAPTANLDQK", "experiment": "fluorescence polarization", "settings": "FP: 20 mM HEPES pH 7.5, 100 mM NaCl, 3 nM labelled RNA, 25 C; recombinant protein; residues 16-339; protein details: GST tag removed by TEV; label: 5' Alexa Fluor 488; scale: fold lower affinity than full-length SND1"}, "SND1 full-length [2]": {"molecular_target": "T1, SND1 full-length", "experiment": "EMSA", "settings": "5 mM EGTA, 2 uM RNA, 2 uM SND1; EMSA: same buffer with 5 mM EGTA or 5 mM CaCl2, room temperature 1 or 4 h, 20% PAGE 1xTBE 4 C; recombinant protein; protein details: GST tag removed by TEV; label: 5' Alexa Fluor 488"}}, "note": "The exact form of at least one protein or probe is not confirmed. For some of these results: At least one verdict was read from the data and is not stated in words by the source. Where a protein sequence is shown, tags need not be part of it. For some of these results: The direction of at least one scale is not stated here.", "data": [{"sequence": "UAGCACCAUUUGAAAUCAGUGUU [Alexa Fluor 488 RNA tracer]", "values": [{"measurement": "binding result", "setting": "SND1 full-length [1]", "value": "binds"}, {"measurement": "binding signal", "setting": "SND1 SN3-SN4-TSN", "value": 100}, {"measurement": "binding signal", "setting": "SND1 SN1-SN2", "value": 100}, {"measurement": "binding result", "setting": "SND1 full-length [2]", "value": "binds"}]}]}
